Measurements reported in article PMC7264342.
These are yes or no findings as the source states them, for the method shown. Binding seen in cells or lysates may run through a third protein. Some results given as binding are weak or reduced against the parent protein; the word gives no strength.

Amino acid sequences for entries named in this document (tags omitted).
UniProt Q15910: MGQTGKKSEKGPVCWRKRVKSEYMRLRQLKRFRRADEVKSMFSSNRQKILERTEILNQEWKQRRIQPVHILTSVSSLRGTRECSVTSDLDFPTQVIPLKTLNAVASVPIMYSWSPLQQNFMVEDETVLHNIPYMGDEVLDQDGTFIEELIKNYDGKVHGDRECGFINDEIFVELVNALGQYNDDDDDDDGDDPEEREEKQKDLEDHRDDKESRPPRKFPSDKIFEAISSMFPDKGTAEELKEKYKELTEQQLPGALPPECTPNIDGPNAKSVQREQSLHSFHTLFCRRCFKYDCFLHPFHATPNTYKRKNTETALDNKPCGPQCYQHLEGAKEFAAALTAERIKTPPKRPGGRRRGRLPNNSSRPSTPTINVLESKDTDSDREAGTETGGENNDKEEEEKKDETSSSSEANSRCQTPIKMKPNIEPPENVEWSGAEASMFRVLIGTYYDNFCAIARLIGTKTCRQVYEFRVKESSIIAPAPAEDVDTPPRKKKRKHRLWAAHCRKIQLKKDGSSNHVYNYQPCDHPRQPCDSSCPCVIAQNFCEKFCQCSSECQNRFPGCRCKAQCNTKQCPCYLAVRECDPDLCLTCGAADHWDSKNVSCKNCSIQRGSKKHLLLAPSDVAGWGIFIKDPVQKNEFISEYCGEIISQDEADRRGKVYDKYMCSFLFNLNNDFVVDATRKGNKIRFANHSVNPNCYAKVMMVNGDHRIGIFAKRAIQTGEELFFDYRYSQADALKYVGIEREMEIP
UniProt Q9UQM7: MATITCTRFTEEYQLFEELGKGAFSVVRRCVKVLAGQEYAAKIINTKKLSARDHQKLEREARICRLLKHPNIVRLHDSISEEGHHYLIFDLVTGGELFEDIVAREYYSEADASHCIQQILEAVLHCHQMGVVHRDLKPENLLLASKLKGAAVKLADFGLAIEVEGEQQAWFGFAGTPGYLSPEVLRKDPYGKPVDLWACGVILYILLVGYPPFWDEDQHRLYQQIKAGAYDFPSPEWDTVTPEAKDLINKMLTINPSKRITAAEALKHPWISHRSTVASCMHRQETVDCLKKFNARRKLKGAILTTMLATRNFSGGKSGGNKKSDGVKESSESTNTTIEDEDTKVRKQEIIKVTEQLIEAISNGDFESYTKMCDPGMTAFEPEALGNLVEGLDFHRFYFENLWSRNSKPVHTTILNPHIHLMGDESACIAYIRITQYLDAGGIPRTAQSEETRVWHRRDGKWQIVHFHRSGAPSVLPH

Molecular target: EZH2, overexpressed in HEK293T (UniProt Q15910)
Experiment: co-IP; HEK293T cells overexpressing CAMK2A and EZH2 (wild type or mutant); 1 mg lysate with 3 µg anti-CAMK2A or anti-EZH2, 4 °C 4 h, protein-G beads overnight, NETN buffer washes; immunoblot; isotype matched control

## Calcium/Calmodulin dependent protein kinase II alpha (CAMK2A), overexpressed in HEK293T (from UniProt Q9UQM7 1-478) (enzyme)
  binding: binds
